Results from PMC9631078.
These are yes or no findings as the source states them, for the method shown. Binding seen in cells or lysates may run through a third protein. Some results given as binding are weak or reduced against the parent protein; the word gives no strength. Sequences can lack the tags named with a protein.

Sequences of proteins named here, by UniProt entry; tags and fusion partners are left off.
UniProt P46937: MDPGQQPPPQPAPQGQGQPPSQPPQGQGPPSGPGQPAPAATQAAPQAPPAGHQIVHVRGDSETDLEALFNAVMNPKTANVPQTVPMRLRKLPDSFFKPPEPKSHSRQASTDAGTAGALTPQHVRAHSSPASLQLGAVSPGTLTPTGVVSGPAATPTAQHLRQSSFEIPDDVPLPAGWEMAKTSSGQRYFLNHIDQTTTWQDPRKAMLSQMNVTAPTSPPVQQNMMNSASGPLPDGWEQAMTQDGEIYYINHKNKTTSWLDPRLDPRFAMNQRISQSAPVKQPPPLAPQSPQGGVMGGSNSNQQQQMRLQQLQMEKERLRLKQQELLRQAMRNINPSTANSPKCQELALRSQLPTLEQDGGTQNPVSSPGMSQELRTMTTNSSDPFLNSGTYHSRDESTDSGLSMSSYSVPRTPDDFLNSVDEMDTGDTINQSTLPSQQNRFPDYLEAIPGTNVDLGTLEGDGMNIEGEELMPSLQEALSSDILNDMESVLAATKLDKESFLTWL

Target: T1, Flag-tagged BNIP-2 (full length human BNIP-2, pXJ40), overexpressed in HEK293T cells (human) (UniProt Q12982)
T1 sequence: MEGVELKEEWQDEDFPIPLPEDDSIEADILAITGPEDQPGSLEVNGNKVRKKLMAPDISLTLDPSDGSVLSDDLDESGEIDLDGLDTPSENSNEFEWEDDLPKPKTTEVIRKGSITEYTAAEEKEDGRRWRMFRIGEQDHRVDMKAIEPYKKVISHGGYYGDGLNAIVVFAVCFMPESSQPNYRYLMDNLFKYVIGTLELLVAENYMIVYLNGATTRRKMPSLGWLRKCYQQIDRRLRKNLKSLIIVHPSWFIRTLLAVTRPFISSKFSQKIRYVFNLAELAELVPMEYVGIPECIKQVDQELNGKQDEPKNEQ
Test: co-IP; pull-down of BNIP-2 in the overexpression system (Figure S4D); details not shown

YAP (LATS1 substrate), found in the pull-down of BNIP-2 in the overexpression system (from UniProt P46937 1-504)
binding: binds
